Results reported in doi:10.1101/271270.
Where two headings read alike, the source gives them in different places. These are yes or no findings as the source states them, for the method shown. Binding seen in cells or lysates may run through a third protein. A yes stands for co-enrichment or nearness to the bait. Other partners may have been found.

Amino acid sequences for entries named in this document (tags omitted). A change or cut given only in a name is not applied to a line headed by its entry.
UniProt G5EE53: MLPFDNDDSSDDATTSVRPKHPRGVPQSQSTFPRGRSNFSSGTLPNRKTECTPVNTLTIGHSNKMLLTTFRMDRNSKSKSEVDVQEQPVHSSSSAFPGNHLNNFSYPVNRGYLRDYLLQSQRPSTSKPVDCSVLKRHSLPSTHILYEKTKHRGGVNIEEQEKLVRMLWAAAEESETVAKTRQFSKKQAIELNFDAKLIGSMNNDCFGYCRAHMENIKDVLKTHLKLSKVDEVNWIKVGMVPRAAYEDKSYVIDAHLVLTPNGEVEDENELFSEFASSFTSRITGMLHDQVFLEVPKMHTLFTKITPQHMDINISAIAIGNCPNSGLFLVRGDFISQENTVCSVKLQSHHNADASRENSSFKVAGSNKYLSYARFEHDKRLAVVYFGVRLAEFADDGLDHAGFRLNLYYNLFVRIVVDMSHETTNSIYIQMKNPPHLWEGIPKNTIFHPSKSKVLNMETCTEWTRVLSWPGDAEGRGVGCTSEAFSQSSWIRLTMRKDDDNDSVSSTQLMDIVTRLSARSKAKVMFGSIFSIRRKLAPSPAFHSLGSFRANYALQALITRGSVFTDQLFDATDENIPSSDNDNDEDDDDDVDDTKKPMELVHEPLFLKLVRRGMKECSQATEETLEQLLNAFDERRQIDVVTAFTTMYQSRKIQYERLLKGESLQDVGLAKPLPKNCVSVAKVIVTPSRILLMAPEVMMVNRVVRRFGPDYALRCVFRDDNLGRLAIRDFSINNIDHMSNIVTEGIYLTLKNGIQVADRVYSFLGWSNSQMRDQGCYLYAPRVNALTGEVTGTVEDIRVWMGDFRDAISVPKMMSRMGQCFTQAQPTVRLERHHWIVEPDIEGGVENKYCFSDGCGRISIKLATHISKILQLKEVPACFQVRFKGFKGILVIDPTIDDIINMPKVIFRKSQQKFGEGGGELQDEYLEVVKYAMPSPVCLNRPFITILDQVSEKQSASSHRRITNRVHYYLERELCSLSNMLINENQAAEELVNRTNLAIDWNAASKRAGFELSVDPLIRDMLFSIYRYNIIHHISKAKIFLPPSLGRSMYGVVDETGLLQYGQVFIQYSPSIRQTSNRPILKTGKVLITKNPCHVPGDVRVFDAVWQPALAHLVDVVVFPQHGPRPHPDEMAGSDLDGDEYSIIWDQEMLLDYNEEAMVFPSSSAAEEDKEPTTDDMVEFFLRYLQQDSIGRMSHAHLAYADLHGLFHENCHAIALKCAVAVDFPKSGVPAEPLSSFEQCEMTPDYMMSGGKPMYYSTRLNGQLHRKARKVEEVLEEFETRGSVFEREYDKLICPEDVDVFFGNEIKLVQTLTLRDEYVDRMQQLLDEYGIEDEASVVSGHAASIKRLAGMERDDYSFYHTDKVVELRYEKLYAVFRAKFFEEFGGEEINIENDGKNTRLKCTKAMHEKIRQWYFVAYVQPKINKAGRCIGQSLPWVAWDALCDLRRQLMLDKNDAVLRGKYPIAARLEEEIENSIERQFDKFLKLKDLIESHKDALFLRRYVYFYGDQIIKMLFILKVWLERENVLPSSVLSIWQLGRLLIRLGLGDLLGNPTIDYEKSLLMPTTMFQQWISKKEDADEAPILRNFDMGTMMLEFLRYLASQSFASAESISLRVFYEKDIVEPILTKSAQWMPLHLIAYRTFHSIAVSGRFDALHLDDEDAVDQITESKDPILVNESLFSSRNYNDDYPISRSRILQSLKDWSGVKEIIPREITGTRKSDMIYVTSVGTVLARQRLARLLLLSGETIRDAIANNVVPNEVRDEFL

Columns and labels:
Experiment in all cases: affinity purification with mass spectrometry
[1] = molecular target: GTSF-1 (T06A10.3), endogenous (C. elegans (endogenous in worm extracts)) (UniProt A3QMD6)
[2] = molecular target: GTSF-1 (T06A10.3), endogenous (C. elegans (endogenous in worm extracts)) (UniProt A3QMD6); remark: listed apart in the source
[3] = molecular target: GTSF-1 (T06A10.3), endogenous (C. elegans (endogenous in worm extracts)) (UniProt A3QMD6); remark: listed apart in the source

Measured: binding

RRF-3, endogenous (from UniProt G5EE53) (enzyme)
binds: all assays above
